The values below are quoted from earlier work in PMC7601231 (Polymers, 2020).

As usually defined, the aqueous solubility is the dissolved amount per volume that the medium holds.

The conditions of the series: in plain water; ref [15],[16],[17]; cited from earlier work.

Take `CC(=O)O[C@@]12CO[C@@H]1C[C@H](O)[C@@]1(C)C(=O)[C@H](O)C3=C(C)[C@@H](OC(=O)[C@H](O)[C@@H](NC(=O)OC(C)(C)C)c4ccccc4)C[C@@](O)([C@@H](OC(=O)c4ccccc4)[C@H]21)C3(C)C` [DTX, Docetaxel]: the aqueous solubility is 1 to 5 µg/mL.
